For at least one entry, the source does not settle the construct or the ends of the probe. Whether high values mean tight binding is not given here for every scale.

Sequences of proteins named here, by UniProt entry; tags and fusion partners are left off. Residues count along the entry.
UniProt Q8S8P5, 356-421: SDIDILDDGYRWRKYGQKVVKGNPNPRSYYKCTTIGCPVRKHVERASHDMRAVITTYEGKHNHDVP

One data set deals with AtWRKY33 cDBD (Arabidopsis thaliana) (UniProt Q8S8P5). The data set can be described thus: DPI-ELISA. Particulars: threshold >1.9, protein block assigned from GACY motif; DPI-ELISA on streptavidin plates with biotinylated dsDNA (1 pmol in Figure S1, 2 pmol in Figure 1 legend) and crude E. coli extract; anti-His detection; recombinant protein; protein details: C-terminal His (pET-DEST42); label: 5' biotin on forward strand. In general terms: In an ELISA, binding on a coated surface is turned into a signal by an enzyme label.
As for “AAAAAAAGTCTGCGGCTGCAGGGCGGAAAA (double strand) [library probe 92]”, the binding signal (relative normalized absorbance) turned out to be 2.36.

Consider “AAAAAAGGCGGTCGTAGTTGTGGGAGAAAA (double strand) [library probe 222]”, for which the binding signal (relative normalized absorbance) is 2.35.

As to “AAAAAAGGCGTCTGACTGTAACTCGTAAAA (double strand) [library probe 108]”, the binding signal (relative normalized absorbance) was found to be 2.35.

In the case of “AAAAAAGTCCGCCCTTAATTCATATTAAAA (double strand) [library probe 54]”, the binding signal (relative normalized absorbance) was determined as 2.35.

As to “AAAAAAGTCTAAGGACTTATAGCTGTAAAA (double strand) [library probe 101]”, the binding signal (relative normalized absorbance) turned out to be 2.37.

Staying with this data set, now noted: threshold >1.9, protein block assigned from motif; DPI-ELISA on streptavidin plates with biotinylated dsDNA (1 pmol in Figure S1, 2 pmol in Figure 1 legend) and crude E. coli extract; anti-His detection; recombinant protein; protein details: C-terminal His (pET-DEST42); label: 5' biotin on forward strand.
Turning to “AAAAAACATCGCTGTCGTTGACGTTGAAAA (double strand) [library probe 276]”, the binding signal (relative normalized absorbance) came to 2.34.
